Measurements reported in paper PMC6991692.
Results are given in words; binding and its absence hold for the method and conditions named. In cells and extracts the contact can be indirect.

The chains behind the UniProt entries cited, without tags or fusion partners. Where a name states a change or a piece, a line headed by the entry shows the natural chain unless it says otherwise.
UniProt Q8BGW2: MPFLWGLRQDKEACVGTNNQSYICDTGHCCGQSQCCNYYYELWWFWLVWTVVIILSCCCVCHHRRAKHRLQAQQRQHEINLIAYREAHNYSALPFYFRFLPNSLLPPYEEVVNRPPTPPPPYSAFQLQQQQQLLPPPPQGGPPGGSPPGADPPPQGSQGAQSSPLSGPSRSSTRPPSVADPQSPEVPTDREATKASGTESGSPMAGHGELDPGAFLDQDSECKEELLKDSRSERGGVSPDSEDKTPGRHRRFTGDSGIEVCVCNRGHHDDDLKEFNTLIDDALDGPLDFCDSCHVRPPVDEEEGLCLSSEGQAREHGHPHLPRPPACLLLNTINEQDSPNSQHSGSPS
UniProt Q8C863: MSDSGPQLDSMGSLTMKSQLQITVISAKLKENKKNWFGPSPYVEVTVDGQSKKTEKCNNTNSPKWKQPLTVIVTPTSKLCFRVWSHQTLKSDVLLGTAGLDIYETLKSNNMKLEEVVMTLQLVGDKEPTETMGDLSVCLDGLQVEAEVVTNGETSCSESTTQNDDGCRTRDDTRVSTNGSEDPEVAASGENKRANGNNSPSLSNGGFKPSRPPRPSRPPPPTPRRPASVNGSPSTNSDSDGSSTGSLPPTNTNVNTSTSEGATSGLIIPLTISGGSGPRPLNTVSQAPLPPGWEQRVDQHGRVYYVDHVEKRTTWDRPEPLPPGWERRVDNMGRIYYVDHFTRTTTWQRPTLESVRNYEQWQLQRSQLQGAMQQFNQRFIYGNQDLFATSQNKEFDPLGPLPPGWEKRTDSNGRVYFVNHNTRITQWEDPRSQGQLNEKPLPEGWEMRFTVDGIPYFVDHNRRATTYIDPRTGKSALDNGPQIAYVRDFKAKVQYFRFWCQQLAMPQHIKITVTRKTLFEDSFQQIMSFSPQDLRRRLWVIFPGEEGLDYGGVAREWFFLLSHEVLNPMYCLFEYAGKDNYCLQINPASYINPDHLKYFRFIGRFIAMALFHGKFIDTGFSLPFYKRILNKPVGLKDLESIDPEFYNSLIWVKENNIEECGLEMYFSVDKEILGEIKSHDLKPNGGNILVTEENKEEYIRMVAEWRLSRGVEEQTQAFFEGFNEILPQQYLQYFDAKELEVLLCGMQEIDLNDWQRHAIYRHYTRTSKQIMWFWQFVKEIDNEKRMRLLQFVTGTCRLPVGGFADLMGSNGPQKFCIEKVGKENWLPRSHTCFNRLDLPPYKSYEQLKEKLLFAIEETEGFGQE
UniProt Q9DBH0: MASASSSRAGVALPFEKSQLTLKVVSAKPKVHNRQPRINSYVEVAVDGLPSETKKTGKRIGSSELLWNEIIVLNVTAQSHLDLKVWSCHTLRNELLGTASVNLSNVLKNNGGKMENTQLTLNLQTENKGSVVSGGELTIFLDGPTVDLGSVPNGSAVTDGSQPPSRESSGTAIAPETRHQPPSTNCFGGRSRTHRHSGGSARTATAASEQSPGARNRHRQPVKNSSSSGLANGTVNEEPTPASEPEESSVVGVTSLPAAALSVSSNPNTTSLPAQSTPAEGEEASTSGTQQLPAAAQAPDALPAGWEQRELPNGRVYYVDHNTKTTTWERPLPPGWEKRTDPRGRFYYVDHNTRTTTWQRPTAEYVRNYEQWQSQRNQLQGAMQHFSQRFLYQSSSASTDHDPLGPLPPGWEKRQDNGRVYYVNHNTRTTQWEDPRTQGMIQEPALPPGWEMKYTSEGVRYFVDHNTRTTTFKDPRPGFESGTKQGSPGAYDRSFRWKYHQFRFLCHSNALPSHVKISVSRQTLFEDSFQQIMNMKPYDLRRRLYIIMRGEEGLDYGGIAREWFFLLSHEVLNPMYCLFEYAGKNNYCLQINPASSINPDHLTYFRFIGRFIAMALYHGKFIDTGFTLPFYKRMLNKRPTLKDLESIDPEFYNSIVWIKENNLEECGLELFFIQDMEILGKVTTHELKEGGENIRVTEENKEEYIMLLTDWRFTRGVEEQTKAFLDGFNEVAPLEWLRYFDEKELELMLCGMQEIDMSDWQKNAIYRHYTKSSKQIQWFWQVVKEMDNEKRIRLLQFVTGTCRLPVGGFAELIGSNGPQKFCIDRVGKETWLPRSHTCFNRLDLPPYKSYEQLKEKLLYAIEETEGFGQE

Legend:
[1] = molecular target: WBP1LΔN expressed in J774 macrophage‐like cell line (UniProt Q8BGW2); assay: co-IP; J774 macrophage‐like cell line expressing wild‐type WBP1L or WBP1LΔN; endogenous ITCH co‐isolated (Figure S5)
[2] = molecular target: WBP1LΔN‐Myc (with segment containing all WW binding motifs deleted) (UniProt Q8BGW2); assay: co-IP; HEK293 cells transfected with WBP1L‐Myc or WBP1LΔN‐Myc together with ITCH or WWP2; WBP1L immunoprecipitation, immunoblot with antibody to ITCH or WWP2

## ITCH, endogenous (from UniProt Q8C863 1-864) (enzyme)
[1]
  binding: no binding

## ITCH, co‐expressed in HEK293 cells (from UniProt Q8C863 1-864) (enzyme)
[2]
  binding: no binding

## WWP2, co‐expressed in HEK293 cells (from UniProt Q9DBH0 1-870) (enzyme)
[2]
  binding: no binding
